Measurements from the supplement of paper PMC10849652.
Some of the results follow.

Amino acid sequences for entries named in this document (tags omitted). A change or cut given only in a name is not applied to a line headed by its entry.
UniProt P10301: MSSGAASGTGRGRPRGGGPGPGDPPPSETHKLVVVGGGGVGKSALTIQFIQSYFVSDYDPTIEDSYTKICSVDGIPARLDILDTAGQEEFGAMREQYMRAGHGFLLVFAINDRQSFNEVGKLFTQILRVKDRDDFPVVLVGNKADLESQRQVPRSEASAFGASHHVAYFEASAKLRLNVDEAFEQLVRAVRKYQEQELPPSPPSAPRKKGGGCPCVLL
UniProt O60942: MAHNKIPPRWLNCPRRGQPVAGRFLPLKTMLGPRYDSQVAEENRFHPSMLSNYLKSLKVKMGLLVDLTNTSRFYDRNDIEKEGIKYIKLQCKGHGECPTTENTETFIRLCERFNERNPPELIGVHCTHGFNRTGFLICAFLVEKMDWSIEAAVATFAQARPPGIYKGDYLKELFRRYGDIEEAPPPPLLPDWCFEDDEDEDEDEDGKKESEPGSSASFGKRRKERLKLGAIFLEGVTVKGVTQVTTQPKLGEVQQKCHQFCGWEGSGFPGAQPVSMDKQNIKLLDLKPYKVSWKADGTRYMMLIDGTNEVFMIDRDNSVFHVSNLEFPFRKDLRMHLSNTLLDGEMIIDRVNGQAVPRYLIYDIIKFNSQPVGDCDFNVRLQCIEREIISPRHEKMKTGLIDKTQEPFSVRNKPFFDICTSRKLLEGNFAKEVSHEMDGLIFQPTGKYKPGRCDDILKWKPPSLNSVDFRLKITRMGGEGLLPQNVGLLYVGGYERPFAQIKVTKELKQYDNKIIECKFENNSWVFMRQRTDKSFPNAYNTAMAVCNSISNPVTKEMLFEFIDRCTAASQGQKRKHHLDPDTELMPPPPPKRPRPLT
UniProt Q9H6T3, whole entry, looked up: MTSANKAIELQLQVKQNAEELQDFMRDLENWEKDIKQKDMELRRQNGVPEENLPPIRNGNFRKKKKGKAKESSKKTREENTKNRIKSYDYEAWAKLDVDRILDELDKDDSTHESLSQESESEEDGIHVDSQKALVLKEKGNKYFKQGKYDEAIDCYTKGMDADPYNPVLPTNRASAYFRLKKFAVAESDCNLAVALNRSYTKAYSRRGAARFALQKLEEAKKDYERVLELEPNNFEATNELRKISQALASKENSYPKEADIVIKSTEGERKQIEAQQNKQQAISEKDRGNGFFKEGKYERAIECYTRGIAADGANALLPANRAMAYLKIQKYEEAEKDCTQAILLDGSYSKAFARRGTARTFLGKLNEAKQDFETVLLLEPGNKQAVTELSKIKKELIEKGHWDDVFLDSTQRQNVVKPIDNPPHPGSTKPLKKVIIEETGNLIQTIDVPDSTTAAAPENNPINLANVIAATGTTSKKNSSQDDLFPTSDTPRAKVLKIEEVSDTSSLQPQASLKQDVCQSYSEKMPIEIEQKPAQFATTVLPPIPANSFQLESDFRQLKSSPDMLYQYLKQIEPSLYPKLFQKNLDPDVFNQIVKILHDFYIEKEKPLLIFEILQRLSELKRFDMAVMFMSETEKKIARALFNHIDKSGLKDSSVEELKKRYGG
UniProt Q92901: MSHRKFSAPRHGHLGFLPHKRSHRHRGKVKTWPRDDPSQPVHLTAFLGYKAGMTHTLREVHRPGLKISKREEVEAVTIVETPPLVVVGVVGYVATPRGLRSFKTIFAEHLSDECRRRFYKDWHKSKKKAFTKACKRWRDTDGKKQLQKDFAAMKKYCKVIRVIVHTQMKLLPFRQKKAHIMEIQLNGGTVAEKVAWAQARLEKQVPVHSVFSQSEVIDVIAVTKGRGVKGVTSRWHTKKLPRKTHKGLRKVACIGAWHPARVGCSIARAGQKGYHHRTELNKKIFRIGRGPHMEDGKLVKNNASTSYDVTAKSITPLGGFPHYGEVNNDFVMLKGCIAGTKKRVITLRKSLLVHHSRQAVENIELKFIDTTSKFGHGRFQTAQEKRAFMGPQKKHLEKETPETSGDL

Compound: Cc1ccc(C(=O)N(CCCN)[C@@H](c2nc3cc(Cl)ccc3c(=O)n2Cc2ccccc2)C(C)C)cc1 [ispinesib]
Assay: log2 fold change, soluble protein after heating vs DMSO (PISA); higher = thermal stabilisation; K562 cells, 10 uM, 30 min; active = over 0.2 and 3.5 SD of the protein, either way, in both replicates (recomputed)
How it was run: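 For each measurement, 10 μM compound was applied for 30 min to K562 cells at 2×10^6 cells/mL. Aliquots were heated for 3 min across 48°C-58°C, pooled, and extracted in PBS with 0.5% NP-40 at 4°C; the supernatant after 21,000xg for 90 min was soluble protein. This was quantified by TMTpro 16plex LC-MS/MS with channel sums equalised, and thermal stability was reported relative to control samples from duplicates, on a log2 fold-change scale.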

Target	log2 fold change
RPS6 (UniProt P62753)	inactive: -0.129
RRAS (UniProt P10301)	inactive: 0.006
RPL7 (UniProt P18124)	inactive: -0.292
RPL13A (UniProt P40429)	inactive: -0.292
RPL26 (UniProt P61254)	inactive: -0.427
RPS29 (UniProt P62273)	inactive: -0.293
RNGTT (UniProt O60942)	inactive: 0.073
RPAP3 (UniProt Q9H6T3)	inactive: -0.054
RPL3L (UniProt Q92901)	inactive: -0.327

Part of the list above, with bars between the fields:
Target | log2 fold change
RPL26 (UniProt P61254) | inactive: -0.427
RPS29 (UniProt P62273) | inactive: -0.293
